Assay: Intramolecular hydrogen bonding analysis of solution conformation (NOESY, DMSO-d6)
Format: physicochemical
Conditions: hydrogen bond defined as <3.1 Å
In the case of `C[C@](O)(COc1ccc(F)cc1)C(=O)Nc1ccc([N+](=O)[O-])c(C(F)(F)F)c1` [Compound S-1], the “NH—OH interatomic distance (linker amide proton to linker hydroxyl oxygen)” value (“NH—OH interatomic distance” for short) is reported as 2.4 Å and the “NH—X interatomic distance (linker amide proton to linker X-position atom)” value (“NH—X interatomic distance” below) is reported as 2.3 Å.
For `CC(=O)Nc1ccc(OC[C@](C)(O)C(=O)Nc2ccc([N+](=O)[O-])c(C(F)(F)F)c2)cc1` [Compound S-4], the “NH—OH interatomic distance” value was 2.7 Å and the “NH—X interatomic distance” value was 1.9 Å.
With `C[C@](O)(CSc1ccc(F)cc1)C(=O)Nc1ccc([N+](=O)[O-])c(C(F)(F)F)c1` [Compound X-2] the “NH—OH interatomic distance” value was 2.1 Å and the “NH—X interatomic distance” value was 3.0 Å.
For `C[C@](O)(CS(=O)(=O)c1ccc(F)cc1)C(=O)Nc1ccc([N+](=O)[O-])c(C(F)(F)F)c1` [Compound X-3], the “NH—OH interatomic distance” value was 2.0 Å and the “NH—X interatomic distance” value was 3.6 Å.
With `C[C@](O)(CNc1ccc(F)cc1)C(=O)Nc1ccc([N+](=O)[O-])c(C(F)(F)F)c1` [Compound X-4] the “NH—OH interatomic distance” value was 2.3 Å and the “NH—X interatomic distance” value was 4.4 Å.
For `C[C@](O)(CCc1ccc(F)cc1)C(=O)Nc1ccc([N+](=O)[O-])c(C(F)(F)F)c1` [Compound X-5], the “NH—OH interatomic distance” value was 2.0 Å and the “NH—X interatomic distance” value was 3.9 Å.
